This is an account of results in PubChem BioAssay AID662 (National Center for Advancing Translational Sciences (NCATS), 2007).

Values joined by “and” are separate entries in the source; they are usually repeats but may differ in a detail not shown here. Identical values can stand only once. The list shows a part of the results. These are further read-outs of the screen, such as a control signal, another cell line or another target. No call is given for them. The list favours compounds with an active or inconclusive main result. Words in brackets tell the shape of the fitted curve; partial curves, single points and poor fits give uncertain potencies.

The experiment can be described thus: Cell signaling CRE-BLA (Fsk stim). Conditions: CHO CRE-bla reporter (cAMP response element driving beta-lactamase), forskolin EC10, beta-lactamase ratio; measured here: 460 nm blue channel. Put shortly:
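Beta-lactamase reporter under a cAMP responsive element in CHO cells; compounds tested in titration series against EC10 NKH 477, 3 h at 37 °C. Read-out: CCF4 FRET ratio 460nm/530nm (excitation 405nm) giving %Activity, fitted to AC50.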
The term AC50 denotes the midpoint of the concentration-response curve, whichever way the signal moves. For the compound `COc1ccc(-c2nnc(SC(C)C(=O)Nc3nccs3)n2-c2ccccc2)cc1OC` (stereo unspecified), the AC50 was 10 µM [rising, partial curve].
Regarding `Cc1nc(NCCN2CCOCC2)c2oc3ccccc3c2n1`, the concentration at half-maximal activity (AC50) is 7.94 µM [falling, partial curve].
In the case of `Cc1nnsc1-c1nc2ccccc2[nH]1`, the AC50 is 25.1 µM [rising, single point].
Turning to `CN1C(=O)c2ccc(N3CCCC3)cc2C1=O`, the AC50 was 10 µM [rising, single point].
`CCOC(=O)c1c(C)[nH]c(C(=O)CN2CCOCC2)c1C`: the AC50 is 25.1 µM [rising, single point].
As to `CCCc1nc2n[nH]c(N)c2c2c1CCC2`, the AC50 is 0.631 µM [rising, full curve, poor fit].
Regarding `CN(C)CCCN1c2ccccc2CCc2ccc(Cl)cc21`, the AC50 is 31.6 µM [falling, single point].
As for `CC(=O)N1CCN(C(C)=O)C1c1ccccc1`, the AC50 is 0.398 µM [rising, partial curve].
Regarding `CN(C)c1ncc2nc(-c3cc(F)cc(F)c3)c(=O)n(Cc3ccc(F)cc3)c2n1`, the AC50 is 3.98 µM [rising, partial curve].
Consider `O=c1c2[nH]c3ccc(Cl)cc3c2ncn1Cc1ccccn1`, for which the AC50 is 10 µM [rising, partial curve].
For `Cc1csc(NC(=O)CSc2nc(C(C)C)nc3c2c(=O)n(C)c(=O)n3C)n1`, the AC50 is 3.16 µM [rising, full curve].
The value for `COc1cccc(NC(=O)Cc2ccccc2)c1` was 0.794 µM [rising, full curve, poor fit]; that for `Cc1c(C(=O)NCCCN2CCOCC2)sc2nc(-c3ccccc3)cn12` was 10 µM [rising, partial curve]; that for `O=c1cc(N2CCN(Cc3ccccc3)CC2)[nH]c(=O)n1-c1cccc(C(F)(F)F)c1` was 7.94 µM [rising, partial curve].
The value for `CC(=O)O[C@H]1CC[C@@]2(C)C(=CC[C@@H]3[C@H]4CC[C@@H]([C@H](C)C(=O)O)[C@]4(C)CC[C@H]32)C1` was 5.01 µM [rising, single point].
As to `Cn1c(C(=O)Nc2ccc3c(c2)OCO3)cc2c(=O)n(C)c3ccccc3c21`, the AC50 was 1.58 µM [rising, full curve].
Consider `C=CCn1c(SCc2cc(=O)n3ccsc3n2)nc2scc(C3CC3)c2c1=O`, for which the AC50 is 0.398 µM [rising, partial curve].
Take `Cc1cc(NC(=O)c2ccc(S(=O)(=O)N3CCCC3)cc2)nc2c1c(=O)oc1ccccc12`: the AC50 is 6.31 µM [rising, full curve, poor fit].
Regarding `CC1(C)Cc2c(sc3c2c(=N)n(Cc2ccco2)c(=O)n3Cc2ccc(Cl)cc2)CO1`, the AC50 was 0.794 µM [rising, full curve].
As to `CCCC(=O)Nc1nnc(Sc2ccc(N(C)C)cc2)s1`, the half-maximal activity concentration (AC50) is 2.51 µM [rising, partial curve].
Turning to `COc1ccc(C2C(C(=O)O)CC(=O)N2c2ccc(OC)cc2)cc1` (stereo unspecified), the AC50 was 25.1 µM [falling, single point].
For the compound `Cn1c(=O)c2c(nc(SCCCC#N)n2Cc2ccccc2F)n(C)c1=O`, the AC50 was 10 µM [rising, single point].
Take `CC(C)[C@@H](CC(=O)N[C@@H]1CCNC[C@H]1C(=O)N[C@H](CC(=O)N[C@@H](CCC(=O)O)CC(=O)O)Cc1ccccc1)NC(=O)C[C@H](Cc1c[nH]c2ccccc12)NC(=O)[C@@H]1CCCC[C@H]1N`: the AC50 was 15.8 µM [falling, partial curve].
To `Cc1ccc(NC2c3ncccc3C(=O)N2C2CCCCC2)cc1` (stereo unspecified) belongs 1.26 µM [rising, full curve, poor fit].
For the compound `CCCOc1ccc2oc(=O)c3c(c2c1)CCCN3C(=O)CN1CCc2ccccc2C1`, the concentration at half-maximal activity (AC50) is 3.98 µM [rising, full curve, poor fit].
To `NC(=O)C(F)(F)C12OC3C4C5CC(C6C5C3C61)C42` (stereo unspecified) belongs 5.01 µM [falling, single point]; to `COC(=O)C1=C(C)NC(C)=C(C(=O)OC)C1c1ccccc1[N+](=O)[O-]`, 10 µM [rising, partial curve] and 12.6 µM [rising, partial curve] and 5.01 µM [rising, partial curve].
`CCC(=O)N(CC)c1nc(-c2ccc(OC)cc2)cs1`: the AC50 is 3.16 µM [rising, single point].
The value for `CN(C)c1ncc2nc(-c3ccc(Cl)cc3)c(=O)n(C3CC3)c2n1` was 2.51 µM [rising, full curve].
The value for `Cn1cccc1C(=O)N1CCC2(CC1)CN(c1ccccn1)C2` was 25.1 µM [rising, single point].
The value for `O=c1c(-c2ccccc2)[n+]([O-])c2ccccc2n1O` was 25.1 µM [rising, single point]; that for `CN(C)c1ccc(-c2nc(-n3ccnc3)c3ccccc3n2)cc1` was 10 µM [rising, partial curve].
`CC(C)C(C)(C#N)NC(=O)CSc1nc2scc(-c3ccco3)c2c(=O)n1-c1ccccc1` (stereo unspecified): the concentration at half-maximal activity (AC50) was 10 µM [rising, partial curve].
As to `CCn1c(=O)cc(OCC(=O)N2CCN(C(=O)c3ccco3)CC2)c2ccccc21`, the AC50 was 25.1 µM [rising, partial curve, poor fit].
Turning to `Cc1cc2c(cc(C(=O)O)n2C)s1`, the AC50 was 0.0251 µM [falling, full curve, poor fit].
To `O=c1cnc2cnc(N3CCNCC3)nc2n1Cc1ccc(F)cc1` belongs 12.6 µM [rising, single point]; to `COc1ccc(CCNS(=O)(=O)c2ccccc2)cc1OC`, 0.00398 µM [falling, full curve, poor fit]; to `O=C(Cc1cccs1)N(Cc1ccco1)C1(C(=O)NC2CCCC2)CCCCC1`, 7.94 µM [rising, partial curve, poor fit].
Consider `N#C/C=C1\n2c(nc3ccccc32)OC12CCCCC2`, for which the AC50 is 10 µM [rising, partial curve].
To `O=C1CSC(c2cn(-c3ccccc3)nc2-c2cccs2)N1CC1CCCO1` (stereo unspecified) belongs 10 µM [rising, partial curve]; to `Cc1ccc(-c2nnn(CC(=O)Nc3ccccc3N3CCOCC3)n2)cc1`, 10 µM [rising, partial curve]; to `COC(=O)c1ccc(CSc2nc3c(cnn3-c3ccc(C)cc3)c(=O)[nH]2)o1`, 0.316 µM [rising, full curve].
To `CCN(CC)C(=O)CSC(=Nc1ccccc1F)NC#N` belongs 0.501 µM [falling, full curve, poor fit].
With `CC(C)Cn1c(=O)c(C(=O)NCc2ccccn2)c(O)c2ccccc21`, the AC50 is 0.794 µM [rising, full curve, poor fit].
For the compound `OC(COc1c(Br)cc(Br)cc1Br)CN1CCOCC1` (stereo unspecified), the AC50 is 10 µM [rising, single point].
As to `CCOC(=O)Cc1nnc(NC(=O)CSc2ccccc2)s1`, the AC50 was 15.8 µM [falling, single point].
As for `Cc1ccc(NC(=O)COC(=O)C2CCC(=O)N2)c(S(=O)(=O)N2CCOCC2)c1` (stereo unspecified), the AC50 was 0.00398 µM [falling, full curve, poor fit].
With `CCn1c(=NC(=O)CSC(C)=O)sc2ccccc21`, the AC50 is 0.2 µM [falling, full curve, poor fit].
The value for `Cc1ccc(CNC(=O)c2cn(C3CCCCC3)c(=O)c3c2c2ccccc2n3C)o1` was 5.01 µM [rising, partial curve]; that for `Cc1coc2cc3oc(=O)c4c(c3cc12)CCCC4` was 0.00398 µM [falling, full curve, poor fit]; that for `O=C(CCNC(=O)c1ccc(Br)o1)NCc1ccccn1` was 5.01 µM [rising, single point].
On to `Cn1c(=O)c2c(-c3ccccc3)n3c4ccccc4ncc3c2n(C)c1=O`, for which the AC50 was 5.01 µM [rising, partial curve, poor fit].
Consider `COc1ccccc1CCNC(=O)c1cnn2c(C(F)F)cc(C)nc12`, for which the AC50 is 15.8 µM [rising, partial curve].
Turning to `Nc1[nH]nc2nc3ccccc3nc12`, the AC50 was 25.1 µM [falling, single point].
Consider `Cc1cc(C(=O)Cn2nnc3ccccc3c2=O)c(C)n1-c1c(C)n(C)n(-c2ccccc2)c1=O`, for which the AC50 is 25.1 µM [rising, single point].
On to `COc1ccc(Nc2ncnc3c2cnn3Cc2ccccc2)cc1`, for which the AC50 is 10 µM [rising, partial curve].
Take `COc1ccc2c(c1)c1ncn(Cc3ccco3)c(=O)c1n2C`: the AC50 is 0.398 µM [rising, full curve].
As to `CCN1C(=O)c2c(C)nc3ccccc3c2C1=O`, the AC50 was 6.31 µM [rising, partial curve].
The value for `Cc1ccc(CCNC(=O)c2nnn(-c3cc(C)cc(C)c3)c2N)cc1` was 6.31 µM [falling, partial curve, poor fit]; that for `O=C1CC2(CCCCC2)Oc2ccc(O)cc21` was 5.01 µM [falling, partial curve].
`CCCC1CCC(C(=O)Nn2c(C)nc3ccccc3c2=O)CC1` (stereo unspecified): the concentration at half-maximal activity (AC50) is 3.98 µM [rising, single point].
For `COc1ccc(C(C)=O)cc1COC(=O)Cc1n[nH]c(=O)c2ccccc12`, the AC50 was 10 µM [rising, single point].
For the compound `CCn1nc(C(=O)OCC(=O)NCCN2C(=O)CSC2=O)c2ccccc2c1=O`, the half-maximal activity concentration (AC50) is 10 µM [rising, partial curve].
With `CN(C)S(=O)(=O)N1CCCN(S(=O)(=O)N(C)C)CC1`, the AC50 was 0.00316 µM [falling, full curve, poor fit].
To `CCOC(=O)C1CCN(C(=O)Nc2ccc3nc(C)c(C)nc3c2)CC1` belongs 20 µM [rising, single point].
To `Oc1ccc(Cl)cc1/C=N/c1nccs1` belongs 0.158 µM [rising, full curve].
